Results taken from PMC7058038.
Results are given in words; binding and its absence hold for the method and conditions named. In cells and extracts the contact can be indirect. Some entries that bind do so weakly or less than the wild type. Sequences can lack the tags named with a protein.

Chains of the proteins cited; added tags and fusions are not shown.
UniProt Q16254: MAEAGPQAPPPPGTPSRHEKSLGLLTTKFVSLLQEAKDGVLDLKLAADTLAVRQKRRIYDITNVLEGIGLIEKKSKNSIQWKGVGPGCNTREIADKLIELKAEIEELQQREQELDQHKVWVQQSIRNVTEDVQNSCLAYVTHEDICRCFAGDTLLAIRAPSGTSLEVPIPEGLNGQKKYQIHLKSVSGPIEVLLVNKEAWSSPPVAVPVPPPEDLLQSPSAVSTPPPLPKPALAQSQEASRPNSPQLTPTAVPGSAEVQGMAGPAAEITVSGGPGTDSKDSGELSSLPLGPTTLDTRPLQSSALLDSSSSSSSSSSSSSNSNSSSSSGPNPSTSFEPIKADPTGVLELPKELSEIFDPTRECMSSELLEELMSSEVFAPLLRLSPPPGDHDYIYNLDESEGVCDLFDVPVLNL
UniProt Q01094: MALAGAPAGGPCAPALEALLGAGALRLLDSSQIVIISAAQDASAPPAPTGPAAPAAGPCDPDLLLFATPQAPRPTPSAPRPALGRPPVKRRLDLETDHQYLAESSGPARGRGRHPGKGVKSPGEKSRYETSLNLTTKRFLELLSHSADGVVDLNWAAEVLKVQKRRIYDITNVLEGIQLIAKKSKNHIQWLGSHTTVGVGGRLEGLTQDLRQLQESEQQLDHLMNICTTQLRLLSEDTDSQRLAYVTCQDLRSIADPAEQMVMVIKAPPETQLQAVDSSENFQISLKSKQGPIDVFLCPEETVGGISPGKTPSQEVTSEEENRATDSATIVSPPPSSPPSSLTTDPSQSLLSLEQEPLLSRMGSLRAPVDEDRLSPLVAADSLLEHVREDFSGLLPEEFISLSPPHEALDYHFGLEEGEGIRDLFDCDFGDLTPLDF
UniProt A0AVK6: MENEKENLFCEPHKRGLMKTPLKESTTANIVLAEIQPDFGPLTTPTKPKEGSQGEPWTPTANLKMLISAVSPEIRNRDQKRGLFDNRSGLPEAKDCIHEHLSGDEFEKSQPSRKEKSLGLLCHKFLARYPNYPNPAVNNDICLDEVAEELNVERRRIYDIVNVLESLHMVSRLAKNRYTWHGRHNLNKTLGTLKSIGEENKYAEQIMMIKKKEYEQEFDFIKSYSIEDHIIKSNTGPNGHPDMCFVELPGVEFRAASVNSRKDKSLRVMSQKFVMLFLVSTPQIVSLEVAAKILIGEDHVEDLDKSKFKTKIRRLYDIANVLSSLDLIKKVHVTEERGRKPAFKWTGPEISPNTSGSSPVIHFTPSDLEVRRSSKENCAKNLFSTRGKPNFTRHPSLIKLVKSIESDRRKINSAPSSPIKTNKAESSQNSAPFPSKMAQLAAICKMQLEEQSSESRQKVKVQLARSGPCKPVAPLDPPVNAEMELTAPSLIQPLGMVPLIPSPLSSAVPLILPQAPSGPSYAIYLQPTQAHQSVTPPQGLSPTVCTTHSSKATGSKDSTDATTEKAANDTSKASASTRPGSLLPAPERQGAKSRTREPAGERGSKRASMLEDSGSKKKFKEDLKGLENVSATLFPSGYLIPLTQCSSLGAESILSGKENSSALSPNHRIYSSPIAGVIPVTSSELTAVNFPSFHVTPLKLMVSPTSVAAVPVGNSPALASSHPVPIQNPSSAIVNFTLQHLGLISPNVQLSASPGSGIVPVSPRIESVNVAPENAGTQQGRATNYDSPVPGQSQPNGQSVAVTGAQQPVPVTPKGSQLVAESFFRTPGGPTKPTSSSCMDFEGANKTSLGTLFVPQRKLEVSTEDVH

T1: FLAG-tagged FBXL3 (human) (UniProt Q9UKT7)
T1 sequence: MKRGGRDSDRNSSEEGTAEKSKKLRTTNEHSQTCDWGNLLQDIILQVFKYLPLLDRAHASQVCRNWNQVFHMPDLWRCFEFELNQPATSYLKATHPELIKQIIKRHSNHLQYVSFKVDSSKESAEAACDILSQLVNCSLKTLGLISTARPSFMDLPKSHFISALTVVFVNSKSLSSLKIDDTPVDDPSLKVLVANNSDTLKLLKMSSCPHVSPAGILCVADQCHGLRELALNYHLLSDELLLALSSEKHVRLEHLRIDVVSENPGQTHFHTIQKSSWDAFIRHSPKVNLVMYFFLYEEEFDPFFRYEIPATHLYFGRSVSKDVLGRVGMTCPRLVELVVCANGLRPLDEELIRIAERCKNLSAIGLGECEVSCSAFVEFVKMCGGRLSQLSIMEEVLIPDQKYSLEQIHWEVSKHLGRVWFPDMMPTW

B1: FBXL3 (co-expressed with FLAG-tagged E2F proteins) (protein, UniProt Q9UKT7 1-428)
chain: T1 sequence
B2: CRY2 (protein, UniProt Q9R194 1-592)
chain: MAAAAVVAATVPAQSMGADGASSVHWFRKGLRLHDNPALLAAVRGARCVRCVYILDPWFAASSSVGINRWRFLLQSLEDLDTSLRKLNSRLFVVRGQPADVFPRLFKEWGVTRLTFEYDSEPFGKERDAAIMKMAKEAGVEVVTENSHTLYDLDRIIELNGQKPPLTYKRFQALISRMELPKKPAVAVSSQQMESCRAEIQENHDDTYGVPSLEELGFPTEGLGPAVWQGGETEALARLDKHLERKAWVANYERPRMNANSLLASPTGLSPYLRFGCLSCRLFYYRLWDLYKKVKRNSTPPLSLFGQLLWREFFYTAATNNPRFDRMEGNPICIQIPWDRNPEALAKWAEGKTGFPWIDAIMTQLRQEGWIHHLARHAVACFLTRGDLWVSWESGVRVFDELLLDADFSVNAGSWMWLSCSAFFQQFFHCYCPVGFGRRTDPSGDYIRRYLPKLKGFPSRYIYEPWNAPESVQKAAKCIIGVDYPRPIVNHAETSRLNIERMKQIYQQLSRYRGLCLLASVPSCVEDLSHPVAEPGSSQAGSISNTGPRALSSGPASPKRKLEAAEEPPGEELTKRARVTEMPTQEPASKDS
B3: CRY1 (protein, UniProt P97784 1-606)
chain: MGVNAVHWFRKGLRLHDNPALKECIQGADTIRCVYILDPWFAGSSNVGINRWRFLLQCLEDLDANLRKLNSRLFVIRGQPADVFPRLFKEWNITKLSIEYDSEPFGKERDAAIKKLATEAGVEVIVRISHTLYDLDKIIELNGGQPPLTYKRFQTLVSKMEPLEMPADTITSDVIGKCMTPLSDDHDEKYGVPSLEELGFDTDGLSSAVWPGGETEALTRLERHLERKAWVANFERPRMNANSLLASPTGLSPYLRFGCLSCRLFYFKLTDLYKKVKKNSSPPLSLYGQLLWREFFYTAATNNPRFDKMEGNPICVQIPWDKNPEALAKWAEGRTGFPWIDAIMTQLRQEGWIHHLARHAVACFLTRGDLWISWEEGMKVFEELLLDADWSINAGSWMWLSCSSFFQQFFHCYCPVGFGRRTDPNGDYIRRYLPVLRGFPAKYIYDPWNAPEGIQKVAKCLIGVNYPKPMVNHAEASRLNIERMKQIYQQLSRYRGLGLLASVPSNSNGNGGLMGYAPGENVPSCSSSGNGGLMGYAPGENVPSCSGGNCSQGSGILHYAHGDSQQTHSLKQGRSSAGTGLSSGKRPSQEEDAQSVGPKVQRQSSN

Assays:
[1] = target: T1, FLAG-tagged FBXL3 (human); assay: co-IP; FLAG-tagged FBXL3 as bait on anti-Flag M2 agarose beads; HEK293T whole cell extracts (1% TX-100, 50 mM HEPES pH 7.4, 138 mM KCl, 4 mM NaCl); E2F1, E2F4 or E2F8 co-expressed with or without CRY1 and/or CRY2; immunoblot
FLAG-tagged E2F4 (human) = FLAG-tagged E2F4 (human) (UniProt Q16254); assay: co-IP; FLAG-tagged E2F1, E2F4 or E2F8 as bait on anti-Flag M2 agarose beads; HEK293T whole cell extracts (1% TX-100, 50 mM HEPES pH 7.4, 138 mM KCl, 4 mM NaCl); FBXL3 co-expressed with or without CRY1 or CRY2; immunoblot
FLAG-tagged E2F1 (human) = FLAG-tagged E2F1 (human) (UniProt Q01094); assay: as above
FLAG-tagged E2F8 (human) = FLAG-tagged E2F8 (human) (UniProt A0AVK6); assay: as above

Molecule | binding [1] | binding (FLAG-tagged E2F4 (human)) | binding (FLAG-tagged E2F1 (human)) | binding (FLAG-tagged E2F8 (human))
E2F4 (co-expressed with FLAG-tagged FBXL3) (from UniProt Q16254 1-413) | binds |  |  | 
B1 |  | binds | binds | binds
B2 |  | binds | binds | binds
B3 |  | binds |  | 
